No constants are given. Whether binding was seen depends on the method and setting. Some entries that bind do so weakly or less than the wild type.
T1: recombinant soluble human L-selectin (human, UniProt P14151 39-332)
T1 construct: extracellular domain; The residue numbers 1-279 count on the mature protein, not on the precursor
T1 sequence (looked up): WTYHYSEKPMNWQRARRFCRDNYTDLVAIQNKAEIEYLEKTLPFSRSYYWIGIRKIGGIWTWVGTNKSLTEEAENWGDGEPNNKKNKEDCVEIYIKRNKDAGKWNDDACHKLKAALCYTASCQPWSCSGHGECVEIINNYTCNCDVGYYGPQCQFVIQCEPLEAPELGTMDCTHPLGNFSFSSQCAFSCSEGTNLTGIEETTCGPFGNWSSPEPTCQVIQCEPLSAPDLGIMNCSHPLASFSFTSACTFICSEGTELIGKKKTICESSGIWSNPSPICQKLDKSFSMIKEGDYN


Target: T1, recombinant soluble human L-selectin
Experiment: ELISA on coated soluble human L-selectin; antibody in culture supernatant

| binding | Binder |
| --- | --- |
| binds | chicken-human chimeric anti-L-selectin antibody D3 (antibody, V domains shown, Transiently expressed in 293-H cells; also called ChD3; chimeric D3) VH: AVTLDESGGGLQTPGGALSLVCRASGFSIGSYNMHWVRQAPGKGLEWVAGISGAGSRTAWYGAAVKGRATISRDNGQSTVRLQLNNLRAEDTGTYYCAKDYGGSGSPWYGWGAASWIDAWGHGTEVIVSS VL: ALTQPASVSANPGETVKITCSGGSYYGWYQQKSPGSAPVTVIYDNDKRPSDIPSRFSGSKSGSTGTLTITGVQAEDEAVYFCGSADSAYVGIFGAGTTLTVL |
| binds | humanized anti-L-selectin antibody D3 (antibody, V domains shown, Transiently expressed in 293-H cells; also called HuD3; humanized D3) VH: EVQLLESGGGLVQPGGSLRLSCAASGFSIGSYNMHWVRQAPGKGLEWVAGISGAGSRTAWYGAAVKGRATISRDNAKNTVYLQMNSLRAEDTAVYYCAKDYGGSGSPWYGWGAASWIDAWGQGTLVTVSS VL: SSELTQDPAVSVALGQTVRITCSGGSYYGWYQQKPGQAPVTVIYDNDKRPSDIPSRFSGSKSGSTGSLTITGAQAEDEADYYCGSADSAYVGIFGGGTKLTVL |
